Reference: PubChem BioAssay AID1159598 (NIAID, 2016)
Purpose: 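Canonical TLR pathway genes needed for TNF promoter response to flagellin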. Cell system: human THP-1 B5 reporter cells made macrophage-like with PMA. Reagent: single siRNA against human genes. Timing: reporter read 48 to 72 hours after siRNA transfection. Treatment: flagellin stimulation for 4 hours, dose not given. Measured: 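Firefly to renilla ratio from a TNF promoter reporter after 4 h flagellin, as robust z against negative controls averaged across replicates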. Scale: TNF reporter z-score: higher = stronger TNF promoter activity than controls. Rule for the call: 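a row is called active when its replicate-mean z lies at or beyond 1.5 in either direction, so raised and lowered signal both count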. Calls: active = reporter shifted beyond 1.5 z, up or down; inactive = reporter within 1.5 z of controls.
The whole screen tested 756 reagents; below is a part drawn at random. 142 of all reagents (19%) count as active. 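Active includes both higher and lower reporter signal; each gene has six separate siRNAs, and no gene-level summary is deposited.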 A number with no mark means an inactive call. Reagents against one gene are numbered here. No sequences are given here. Not given: the amount of reagent.

With IFNAR1 (GeneID 3454) #1, how do the results read?
TNF reporter z-score: -1.91 (active)

For IFNAR1 (GeneID 3454) #2, what does the deposit list?
TNF reporter z-score: -1.45

How did the screen score IFNAR1 (GeneID 3454) #3?
TNF reporter z-score: -0.442

For IFNAR1 (GeneID 3454) #4, what was measured?
TNF reporter z-score: -1.35

For IFNAR1 (GeneID 3454) #5, what does the deposit list?
TNF reporter z-score: -0.988

For IFNAR1 (GeneID 3454) #6, what was measured?
TNF reporter z-score: 0.0464

With NFKB1 (GeneID 4790) #1, how do the results read?
TNF reporter z-score: -1.67 (active)

For NFKB1 (GeneID 4790) #2, how do the results read?
TNF reporter z-score: -0.833

With NFKB1 (GeneID 4790) #3, what was measured?
TNF reporter z-score: -1.68 (active)

Which result is listed for NFKB1 (GeneID 4790) #4?
TNF reporter z-score: -1.3

Which result is listed for NFKB1 (GeneID 4790) #5?
TNF reporter z-score: 0.899

How did the screen score NFKB1 (GeneID 4790) #6?
TNF reporter z-score: -0.617

With TLR1 (GeneID 7096) #1, how do the results read?
TNF reporter z-score: 0.66

What is on record for TLR1 (GeneID 7096) #2?
TNF reporter z-score: -0.652

What did the screen give for TLR1 (GeneID 7096) #3?
TNF reporter z-score: -1.53 (active)

What is on record for TLR1 (GeneID 7096) #4?
TNF reporter z-score: 2.37 (active)

What did the screen give for TLR1 (GeneID 7096) #5?
TNF reporter z-score: -0.799

Which result is listed for TLR1 (GeneID 7096) #6?
TNF reporter z-score: -0.199

What is on record for OTUD5 (GeneID 55593) #1?
TNF reporter z-score: -0.525

Which result is listed for OTUD5 (GeneID 55593) #2?
TNF reporter z-score: -0.289

Which result is listed for OTUD5 (GeneID 55593) #3?
TNF reporter z-score: -1.37

Which result is listed for OTUD5 (GeneID 55593) #4?
TNF reporter z-score: -0.567

What did the screen give for OTUD5 (GeneID 55593) #5?
TNF reporter z-score: -1.63 (active)

For OTUD5 (GeneID 55593) #6, what was measured?
TNF reporter z-score: -0.817

Which result is listed for TRAF3 (GeneID 7187) #1?
TNF reporter z-score: -1.21

What is on record for TRAF3 (GeneID 7187) #2?
TNF reporter z-score: -2.79 (active)

Which result is listed for TRAF3 (GeneID 7187) #3?
TNF reporter z-score: 0.182

With TRAF3 (GeneID 7187) #4, how do the results read?
TNF reporter z-score: -0.883

How did the screen score TRAF3 (GeneID 7187) #5?
TNF reporter z-score: -0.78

What did the screen give for TRAF3 (GeneID 7187) #6?
TNF reporter z-score: 1.04

For IFNB1 (GeneID 3456) #1, how do the results read?
TNF reporter z-score: -0.859

For IFNB1 (GeneID 3456) #2, what was measured?
TNF reporter z-score: -1.31

What did the screen give for IFNB1 (GeneID 3456) #3?
TNF reporter z-score: 0.205

For IFNB1 (GeneID 3456) #4, what was measured?
TNF reporter z-score: -0.876

How did the screen score IFNB1 (GeneID 3456) #5?
TNF reporter z-score: -1.94 (active)

For IFNB1 (GeneID 3456) #6, how do the results read?
TNF reporter z-score: -1.83 (active)

Records above called active, once more:
IFNAR1 (GeneID 3454) #1 — TNF reporter z-score: -1.91 (active)
NFKB1 (GeneID 4790) #1 — TNF reporter z-score: -1.67 (active)
NFKB1 (GeneID 4790) #3 — TNF reporter z-score: -1.68 (active)
TLR1 (GeneID 7096) #3 — TNF reporter z-score: -1.53 (active)
TLR1 (GeneID 7096) #4 — TNF reporter z-score: 2.37 (active)
OTUD5 (GeneID 55593) #5 — TNF reporter z-score: -1.63 (active)
TRAF3 (GeneID 7187) #2 — TNF reporter z-score: -2.79 (active)
IFNB1 (GeneID 3456) #5 — TNF reporter z-score: -1.94 (active)
IFNB1 (GeneID 3456) #6 — TNF reporter z-score: -1.83 (active)
